The values that follow come from PubChem BioAssay AID1347074 (Center for Chemical Genomics, University of Michigan, 2019).

By UniProt entry, the sequences of proteins in these tests, tags left out. Where a name states a change or a piece, a line headed by the entry shows the natural chain unless it says otherwise.
UniProt Q9UPY3: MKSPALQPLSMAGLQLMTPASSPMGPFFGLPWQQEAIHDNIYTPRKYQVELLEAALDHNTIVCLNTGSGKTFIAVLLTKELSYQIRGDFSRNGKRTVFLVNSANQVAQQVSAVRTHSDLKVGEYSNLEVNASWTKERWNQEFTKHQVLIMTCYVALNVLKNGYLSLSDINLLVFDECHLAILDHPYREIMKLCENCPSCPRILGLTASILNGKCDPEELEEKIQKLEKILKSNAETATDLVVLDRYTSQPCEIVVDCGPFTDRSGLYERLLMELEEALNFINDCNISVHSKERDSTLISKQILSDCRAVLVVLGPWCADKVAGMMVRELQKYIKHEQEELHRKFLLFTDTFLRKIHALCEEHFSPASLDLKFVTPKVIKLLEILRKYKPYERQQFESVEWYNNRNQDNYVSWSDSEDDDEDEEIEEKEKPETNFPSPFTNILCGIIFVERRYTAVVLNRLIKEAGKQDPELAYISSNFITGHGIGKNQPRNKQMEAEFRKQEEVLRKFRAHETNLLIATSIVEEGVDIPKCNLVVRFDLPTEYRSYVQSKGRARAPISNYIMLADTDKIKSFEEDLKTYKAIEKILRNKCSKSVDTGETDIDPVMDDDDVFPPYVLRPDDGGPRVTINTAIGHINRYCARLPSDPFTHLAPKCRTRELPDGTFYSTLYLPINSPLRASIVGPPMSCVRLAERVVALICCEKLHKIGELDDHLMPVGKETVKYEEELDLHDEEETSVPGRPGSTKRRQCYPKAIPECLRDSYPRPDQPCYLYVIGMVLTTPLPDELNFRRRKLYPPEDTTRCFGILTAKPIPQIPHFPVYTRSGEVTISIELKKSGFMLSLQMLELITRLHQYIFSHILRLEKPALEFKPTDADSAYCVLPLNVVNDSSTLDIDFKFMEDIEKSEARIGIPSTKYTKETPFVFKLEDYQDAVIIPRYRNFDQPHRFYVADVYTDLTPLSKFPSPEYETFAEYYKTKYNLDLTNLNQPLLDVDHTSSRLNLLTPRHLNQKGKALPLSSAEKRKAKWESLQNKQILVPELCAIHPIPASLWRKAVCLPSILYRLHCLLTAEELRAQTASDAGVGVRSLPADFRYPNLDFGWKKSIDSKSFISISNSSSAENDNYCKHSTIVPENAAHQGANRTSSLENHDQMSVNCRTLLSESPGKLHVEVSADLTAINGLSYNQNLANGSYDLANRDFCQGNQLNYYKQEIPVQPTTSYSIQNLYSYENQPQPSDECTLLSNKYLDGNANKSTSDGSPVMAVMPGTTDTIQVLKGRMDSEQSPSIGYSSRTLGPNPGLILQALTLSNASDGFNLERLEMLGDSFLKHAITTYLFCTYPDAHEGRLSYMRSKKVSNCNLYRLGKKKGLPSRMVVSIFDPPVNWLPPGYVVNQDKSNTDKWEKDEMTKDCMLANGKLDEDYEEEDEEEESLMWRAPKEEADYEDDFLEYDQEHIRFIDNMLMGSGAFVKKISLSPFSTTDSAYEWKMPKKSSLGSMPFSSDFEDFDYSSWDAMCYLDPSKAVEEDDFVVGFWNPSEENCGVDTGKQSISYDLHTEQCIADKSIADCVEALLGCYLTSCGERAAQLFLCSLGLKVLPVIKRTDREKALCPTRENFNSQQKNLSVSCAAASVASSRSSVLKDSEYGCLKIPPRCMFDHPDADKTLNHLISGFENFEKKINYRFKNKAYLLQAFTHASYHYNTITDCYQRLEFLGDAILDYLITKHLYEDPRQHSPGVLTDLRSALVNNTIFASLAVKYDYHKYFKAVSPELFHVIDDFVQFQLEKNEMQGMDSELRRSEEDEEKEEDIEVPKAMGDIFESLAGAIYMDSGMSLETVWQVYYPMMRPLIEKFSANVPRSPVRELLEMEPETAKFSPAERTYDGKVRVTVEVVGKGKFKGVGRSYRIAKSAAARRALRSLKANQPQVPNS

Only a part is listed here, and it is no random draw. The source made the active and inactive calls. Rule as the data show it: active = z-score above about 3 (passing the limit was not always enough); inactive = the rest.

The test concerns the target Endoribonuclease Dicer (Homo sapiens) (UniProt Q9UPY3). Nature of the test: inhibitors of Dicer pre-microRNA processing, primary screen, biochemical, cat-ELCCA, chemiluminescence (AID 1347074).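 Also: plate controls were vehicle for no effect and no enzyme for full effect; higher signal means more uncleaved substrate so more Dicer inhibition.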 The settings on record: cat-ELCCA pre-miR-21 Dicer processing, at 25 µM, active compounds read high.
As to `O=C1NC(=O)c2c1c(-c1ccccc1)cc1[nH]c3ccc(O)cc3c21`, the z-score was active: 9.76.
